Results reported in PubChem BioAssay AID2685 (National Center for Advancing Translational Sciences (NCATS), 2010).
Out of some 320,000 compounds screened, about 2,100 (0.66%) were called active. The inconclusive results got no clear call from the source; some entries with a clear call stand among them for comparison. Calls follow the shape of the dose curve; as a rule, active = well fitted inhibition curve with a large enough effect in the signal ratio, with a control signal flat (not every such curve was filed as active); inconclusive = small, poorly fitted or top-dose-only effect, or effect the other way, or a change in a side signal; inactive = flat fitted curve, though single readings scatter; the % refers to the signal ratio. Potencies beside an inconclusive call are fits to weak or partial responses and may not hold up.

assay: qHTS Assay for Lipid Storage Modulators in Drosophila S3 Cells; conditions: BODIPY lipid droplet fluorescence, 18-24 h, cells fed with added oleic acid; lipid storage change, negative = inhibition: at 46.1 µM (top of the series) unless noted
In short: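 Drosophila S3 cells got compounds at several concentrations plus oleic acid (400 uM solution). Laser-scanning cytometry with 488 nm excitation read lipid droplets at 500-530 nm and cells at 575-640 nm. Percent activity was relative to 20 uM Triacsin C.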
% is scaled to controls: 0 for no effect and ±100 for the full control effect; potency is read from the fitted curve at half-maximal effect.

Lipid storage change, negative = inhibition, inactive:
COc1cccc(C2/C(=C(\O)c3ccc4c(c3)OCCO4)C(=O)C(=O)N2CCN(C)C)c1 (centres undefined) 10.2%

Lipid storage change, negative = inhibition, inconclusive:
CS(=O)(=O)N(CC(=O)NCc1ccncc1)c1cc(Cl)ccc1Cl 17.7%
COc1cccc(C2NC(=O)NC(C)=C2C(=O)OCC2CCCO2)c1 (centres undefined) 19.4%
CCOc1ccc(C(=O)Nc2ccc3c(c2)OCCO3)cc1 -24%
COc1ccc(-n2nc3c(c2NC(=O)C2CCCC2)CS(=O)C3)cc1 (centres undefined) -5%
C=CCn1c(SCCCC)nc(O)cc1=O -4.6%
COC(=O)c1sccc1-n1cccc1C(=O)N1CCOCC1 -0.398%
O=S(=O)(Cc1ccccc1)Nc1cccc(Br)c1 -11.7%
CC1(c2nnc(-c3ccncc3)o2)CC(c2c(Cl)cccc2Cl)=NO1 (centres undefined) 19.4%
Cc1nn(CC#N)c(=O)n1-c1ccc(C(C)C)cc1 6.59%
CC(C(=O)NCCS(=O)(=O)c1ccc(Cl)cc1)S(=O)(=O)c1ccc(Cl)cc1 (centres undefined) 11.7%
CC(C)CCNc1nc(N)c([N+](=O)[O-])c(NC2CCCCC2)n1 31.4%
C=CCn1c(CCSCc2ccccc2)n[nH]c1=S -5.87%
COc1ccc(OCC(=O)N(Cc2sccc2C)C2CCS(=O)(=O)C2)cc1 (centres undefined) -13.2%
Cc1cccc(C)c1OCc1nnc(SCC(=O)Nc2ccc(N3CCOCC3)cc2)o1 244%
Cc1onc(-c2ccccc2)c1C(=O)N/N=C/c1c[nH]c2ccccc12 33.1%
CCSc1nnc(NC(=O)COc2ccccc2[N+](=O)[O-])s1 -10.1%
CCCc1cc(-c2n[nH]c(C(=O)OCC)c2-c2cscn2)c(O)cc1O -19.8%
COc1cc(C(=O)N2CCN(c3cc(Cl)ccc3Cl)CC2)cc(OC)c1OC 26.9%
O=C(NCc1nc2ccccc2[nH]1)c1cccc(S(=O)(=O)N2CCCC2)c1 -0.541%
COc1cccc(NC(=O)CN(C)C(=O)Cc2ccc3c(c2)OCCO3)c1
COc1ccc(/C=C/C(=O)Oc2ccc(/C=N/NC(=O)COc3c(C)cccc3C)cc2)cc1 43%
O=C(COC(=O)c1ccccc1O)NCCC1=CCCCC1 -41.5%
COc1ccc(NC(=O)Cn2ncn3nc(-c4ccc(OC)cc4)cc3c2=O)cc1 181%
O=c1[nH]c2ccc(S(=O)(=O)N3CCN(c4ccccc4F)CC3)cc2s1 14.8%
CCOc1ccc(-c2ccc(SC)nn2)cc1 6.61%
C#CCOCCOCCOCCNc1nc(N2CCN(C(=O)CCCCCCCCCCNC(=O)Cn3cc(C[C@@H](C)O)nn3)CC2)nc(N2CCN(C(=O)CCCCCCCCCCNC(=O)[C@@H](CCSC)n3cc(CCO)nn3)CC2)n1 -48%
ON=Cc1cccn1-c1ccccc1 15.2%
COc1ccccc1CC(NC(C)=O)C(=O)NC1CCN(C(=O)c2ccc(C)cc2)CC1 (centres undefined) 155%
CCCCSc1nnc(CSc2nc3nc(C)cc(C)n3n2)o1 50.6%
CCn1c2ccccc2c2nc3cc(OC)c(OC)cc3nc21 -29.4%
c1ccc2c(c1)oc1c(Nc3ccc4c(c3)OCCO4)ncnc12 -24.9%
CC(=O)Nc1ccc(NC(=O)CCS(=O)(=O)c2ccc3c(c2)oc(=O)n3C)cc1 -2.66%
CCCCNC(=O)CCn1ccc2cc(S(=O)(=O)N3CCCC3)ccc21 -6.34%
C/C(=N/NC(=O)C1CCN(S(=O)(=O)c2ccc(C)cc2)CC1)c1cccc([N+](=O)[O-])c1 -2.81%
Cc1ccc2c(CN(C)Cc3ccccc3)cc(=O)oc2c1C 50.2%
COc1cc(C2NC(=S)NC(C)=C2C(=O)c2ccccc2)ccc1O (centres undefined) 31%
C/C(=N\NC(=O)c1ccccc1O)c1cccc(NC(=O)c2ccccc2)c1 18.1%
CC(C)c1ccc(OCc2ccc(C(=O)O)o2)cc1 -4.58%
Cn1c(=O)c2c(nc(Br)n2CCSc2nc3ccccc3o2)n(C)c1=O -6.95%
C/C(=C\c1ccc(C)o1)C(=O)c1c(C)cc(C)[nH]c1=O 5.31%
FC(F)(F)c1cnc(-c2cnc(-c3cccnc3)nc2)c(Cl)c1 -27.5%
O=C(Oc1ccccc1N1C(=O)C2CCCCC2C1=O)c1ccccc1F (centres undefined) -2.74%
CC(C)n1c(SCC(N)=O)nc2c1c(=O)[nH]c(=O)n2C 40.7%
COc1cc(CCC(=O)Nc2cc(C)cc(C)c2)cc(OC)c1OC 24.5%
CCOC(=O)[C@@H]1[C@H]2COc3cc(OC)ccc3[C@@H]2N2C(=O)N(c3ccc(Br)cc3)C(=O)[C@@]12C -1.59%
O=S1(=O)CCN2C(c3ccco3)=CSC2=N1 -3.76%
Cc1ccc(SCCC(=O)OCC(=O)Nc2ncc(Cl)cc2Cl)cc1 0.116%
COc1cccc(/C=N/NC(=O)CN(CCc2ccccc2)S(=O)(=O)c2ccc(NC(C)=O)cc2)c1 37.8%
CN(C(=O)c1ccccc1NC(=O)C(F)(F)F)c1ccccc1 -4.62%
Cc1cccc(OCCCC(=O)Nc2ccc(S(N)(=O)=O)cc2)c1 24.8%
CC(=O)c1cccc(NC(=O)C2CCCCC2)c1 -33.9%
Fc1ccccc1COc1ccc(Br)cc1CNCC1CCCO1 (centres undefined) 19.9%
S=c1[nH]ccn1Cc1ccccc1 -28.6%
Cc1ccccc1CNCCCSc1ncccn1 11.4%
Cc1ccc(/C=N/n2c(COc3ccccc3)n[nH]c2=S)s1 -16%
O=C(Nc1nccs1)c1sc2cc(Cl)ccc2c1Cl -24.7%
OC(CNCc1ccccc1)Cn1ccc2ccccc21 (centres undefined) 58.6%
Cc1ccc(C)c(-n2c(CNC(=O)c3ccco3)nnc2SCC(=O)N2CCc3ccccc32)c1 -4.9%

Potency, inconclusive:
N#C/C(=C\c1cc2c(cc1Br)OCO2)C(=O)NCC1CCCO1 (centres undefined) 1.84 µM [falling, partial curve, poor fit]
Cc1noc(C)c1C(=O)NC(C)C12CC3CC(CC(C3)C1)C2 (centres undefined) 3.66 µM [falling, full curve, poor fit]
CNC(=O)NC(=O)C(C)Oc1ccccc1F (centres undefined) 6.51 µM [activator, single point]
Cc1cc(C)cc(NC(=O)c2ccc(N3C(=O)C4CCCCC4C3=O)cc2)c1 (centres undefined) 0.1 µM [falling, full curve, poor fit]
COc1cccc2c1C(CO)N1C(C#N)C3CC(C(=O)O)C(C1C2)N3C (centres undefined) 25.9 µM [falling, partial curve]
COc1ccc(-c2noc(N3CCCC(C(=O)Nc4ccc(C(C)=O)cc4)C3)n2)cc1 (centres undefined) 0.411 µM [activator, partial curve, poor fit]
O=C1CC(N(CCc2ccccc2)C(=S)Nc2ccccc2)C(=O)N1c1ccccc1 (centres undefined) 0.58 µM [activator, single point]
CCCCCCCCCCCCN1C/C(=C\C(=O)OCC)c2ccccc2S1(=O)=O 29.1 µM [falling, single point]
COc1cc(C(=O)N(Cc2cc3cc(C)ccc3[nH]c2=O)CC2CCCO2)cc(OC)c1OC (centres undefined) 0.13 µM [activator, full curve, poor fit]
Cn1c(=O)cc(SCC(=O)N2CCCC2)c2cc(Cl)ccc21 0.116 µM [activator, full curve]
COc1cc(/C=C/C(=O)OCC(=O)Nc2nnc(-c3ccccc3)o2)cc(OC)c1OC 18.4 µM [activator, single point]
Nc1nc2ccccc2n1CCOc1ccc(Cl)cc1 13 µM [falling, single point]
C=CCNc1nc(Nc2ccc(-c3nc4ccccc4o3)cc2)nc(N2CCOCC2)n1 6.51 µM [activator, partial curve]
COCCN(CC(=O)Nc1cccc(C)c1C)C(=O)c1ccc(-n2cccn2)cc1 0.0731 µM [falling, full curve, poor fit]
N#Cc1c(NC(=O)CN2CCCCC2)sc2c1CCC2 29.1 µM [falling, single point]
CC(OC(=O)Cc1n[nH]c(=O)c2ccccc12)C(=O)Nc1ccccc1[N+](=O)[O-] (centres undefined) 0.517 µM [falling, full curve]
O=C(Nc1ccc(Cl)cc1Cl)C1CCCO1 (centres undefined) 29.1 µM [activator, single point]
COC(=O)c1ccc(C2C(C(=O)c3ccco3)=C(O)C(=O)N2CC2CCCO2)cc1 (centres undefined) 0.116 µM [falling, single point]
CCCNC(=O)CN(Cc1ccccc1F)S(=O)(=O)c1ccc(C)cc1 10.3 µM [falling, partial curve]

A stretch from further up, for reference:
Potency, inconclusive:
CNC(=O)NC(=O)C(C)Oc1ccccc1F (centres undefined) 6.51 µM [activator, single point]
Cc1cc(C)cc(NC(=O)c2ccc(N3C(=O)C4CCCCC4C3=O)cc2)c1 (centres undefined) 0.1 µM [falling, full curve, poor fit]
COc1cccc2c1C(CO)N1C(C#N)C3CC(C(=O)O)C(C1C2)N3C (centres undefined) 25.9 µM [falling, partial curve]
COc1ccc(-c2noc(N3CCCC(C(=O)Nc4ccc(C(C)=O)cc4)C3)n2)cc1 (centres undefined) 0.411 µM [activator, partial curve, poor fit]

Following part.

Potency, active:
Cc1nn(Cc2ccc(Cl)cc2)c(C)c1NC(=O)CCCn1nc(C)c([N+](=O)[O-])c1C 2.31 µM
